Experimental data taken from PubChem BioAssay AID2568 (National Center for Advancing Translational Sciences (NCATS), 2010).
This list was built around the results that the source calls inconclusive (neither active nor inactive); the mix of calls is not that of the screen. Potencies beside an inconclusive call are fits to weak or partial responses and may not hold up. The source made the active and inactive calls. Calls follow the shape of the full dose curve.

Sequences of proteins named here, by UniProt entry; tags and fusion partners are left off. A change or cut given only in a name is not applied to a line headed by its entry.
UniProt Q6W5P4: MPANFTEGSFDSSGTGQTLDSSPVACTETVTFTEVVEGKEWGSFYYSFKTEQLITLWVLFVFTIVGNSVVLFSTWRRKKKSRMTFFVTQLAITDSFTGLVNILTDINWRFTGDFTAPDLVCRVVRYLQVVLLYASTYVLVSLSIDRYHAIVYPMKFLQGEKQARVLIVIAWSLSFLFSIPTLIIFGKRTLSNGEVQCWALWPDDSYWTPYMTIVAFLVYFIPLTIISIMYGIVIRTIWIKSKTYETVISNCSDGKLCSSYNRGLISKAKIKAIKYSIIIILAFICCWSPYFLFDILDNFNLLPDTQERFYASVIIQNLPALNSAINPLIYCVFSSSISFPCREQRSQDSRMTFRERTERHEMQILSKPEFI

Molecular target: Neuropeptide S receptor (Homo sapiens) (UniProt Q6W5P4)
Experiment: Confirmation Concentration-Response Assay for Antagonists of the Neuropeptide S Receptor: cAMP Signal Transduction, SAR for Probe
Conditions: CHO-NPSR cells, cAMP TR-FRET, antagonist mode
From the text: NIH Chemical Genomics Center [NCGC] NIH Molecular Libraries Probe Production centers Network [MLPCN] MLPCN Grant: X01-DA026210-01 Assay Submitter (PI): Heilig, Markus Alexander NCGC Assay Overview: Neuropeptide S receptor (NPSR), previously known as GPR154, is a recently de-orphanized G protein coupled receptor. Its endogenous ligand is the 20 amino acids peptide Neuropeptide S (NPS). […] NPS and its receptor are found in various tissues. Specifically they are highly expressed in brain areas that have been implicated in modulation of arousal, stress and anxiety. Central administration of NPS in mice produces an unusual profile of activity by inducing wakefulness and arousal, while at the same time suppressing anxiety. Therefore, NPSR may represent a novel drug target for the treatment of sleep and anxiety disorders. To identify NPSR antagonists, we developed a cell-based cAMP assay. NPS can stimulate the production of cAMP in Chinese hamster ovary cells stably expressing NPS receptor. This change in intracellular cAMP level can be detected by a homogeneous LANCE cAMP assay based on the TR-FRET (time resolved fluorescence resonance energy transfer) between a europium-labeled cAMP tracer complex and a cAMP-specific antibody labeled with Alexa Fluor 647. The europium-labeled cAMP tracer complex is formed by the tight interaction between Biotin-cAMP (b-cAMP) and streptavidin labeled with Europium-W8044 chelate (Eu-SA). Light pulse at 320 nm excites the europium of the cAMP tracer and the energy emitted is transferred to the Alexa molecule bound to the cAMP antibody, generating a TR-FRET signal at 665 nm. Residual energy from the europium will produce a light at 620 nm. The native unlabeled cAMP from cell lysates competes with the europium-cAMP tracer for antibody binding and reversely reduces the emission signal of Alexa by interrupting FRET between the two labeled molecules. Both emission signals from the FRET donor (620 nm) and the acceptor (665 nm) can be detected by a plate reader in the TRF mode. Expression of result in fluorescence ratio (665 nm/620 nm) helps to normalize differences due to cell density and reagent dispensing. This assay was successfully optimized to a 1536-well plate format. Select compounds from the primary screen (AID 1461) were chosen for confirmation based on potency, efficacy, SAR, and activity across other assays in PubChem and at NCGC. Other compounds are analogs of active compounds from the primary screen.
NCGC Assay Protocol Summary: A Chinese hamster ovary (CHO) cell line stably expressing the NPS receptor (CHO-NPSR) was obtained from Dr. Heilig lab at NIAAA and maintained in F-12 Kaighn's media (Invitrogen, Carlsbad, CA, 21127) supplemented with 10 % FBS, 100 units/ml penicillin, 100 ug/ml streptomycin and 250 ug/ml geneticin at 37C, 5% CO2 in a humidified atmosphere. Before the assay, aliquots of cells were frozen and stored at -135C. The assay was performed in 1536-well format. Data are reported for both the ratio of the two emission wavelengths, and also for the component 'donor' channel, Em2=620. […] IC50 values were determined from concentration-response data modeled with the standard Hill equation. NPS 1536-well assay protocol: (1) Fresh or frozen CHO-NPSR cells were suspended in F-12 Kaighn's media supplemented with 10 % FBS, 100 units/ml penicillin and 100 ug/ml streptomycin. Cells were plated at 4 ul/well (1200 cells) to white, tissue culture treated 1536-well plates, and then cultured at 37C, 5 % CO2 for 16 to 30 hours. (2) Add 23 nl/well of compound in DMSO solution. The final titration for each compound was between 0.6 nM and 46 uM. (3) Add 1 ul of stimulation reagent (1X HBSS buffer, 5 mM HEPES, 0.1% BSA, 500 uM RO-201724 (Sigma-Aldrich, B8279), 1.5% Alexa 647-labeled anti-cAMP antibody (from Perkin Elmer), 100 nM NPS) (4) Incubation at 37C, 5 % CO2 for 60 min. (5) Add 1 ul/well detection reagent. […]

| Compound | Potency |
| --- | --- |
| C=C1C(=O)O[C@@H]2C[C@@H](C)[C@@H]3C=CC(=O)[C@@]3(C)[C@@H](OC(=O)CC(=O)O[C@H]3[C@@H]4C(=C)C(=O)O[C@@H]4C[C@@H](C)[C@@H]4C=CC(=O)[C@]43C)[C@H]12 | inconclusive: 1 µM [antagonist, full curve] |
| S=P(c1ccccc1)(c1ccccc1)c1cnc2ccccn12 | inconclusive: 49.9 µM [antagonist, single point] |
| C[n+]1cc(P(=S)(c2ccccc2)c2ccccc2)n2ccccc21 | inconclusive: 31.5 µM [antagonist, partial curve] |
| S=P(c1ccccc1)(c1ccccc1)c1c[nH]c2ccccc12 | inconclusive: 99.6 µM [antagonist, partial curve, poor fit] |
| Cc1c(P(=S)(c2ccccc2)c2ccccc2)[n+]2ccccc2n1Cc1ccccc1 | active: 1.99 µM |
| Cc1nc2ccccn2c1P(=S)(c1ccccc1)c1ccccc1 | active: 25 µM |
| Cn1cc(P(=S)(c2ccccc2)c2ccccc2)c2ccccc21 | inconclusive: 49.9 µM [antagonist, single point] |
